# Assay results published in paper PMC11116421.
# The chains behind the UniProt entries cited, without tags or fusion partners.
# UniProt Q501J6: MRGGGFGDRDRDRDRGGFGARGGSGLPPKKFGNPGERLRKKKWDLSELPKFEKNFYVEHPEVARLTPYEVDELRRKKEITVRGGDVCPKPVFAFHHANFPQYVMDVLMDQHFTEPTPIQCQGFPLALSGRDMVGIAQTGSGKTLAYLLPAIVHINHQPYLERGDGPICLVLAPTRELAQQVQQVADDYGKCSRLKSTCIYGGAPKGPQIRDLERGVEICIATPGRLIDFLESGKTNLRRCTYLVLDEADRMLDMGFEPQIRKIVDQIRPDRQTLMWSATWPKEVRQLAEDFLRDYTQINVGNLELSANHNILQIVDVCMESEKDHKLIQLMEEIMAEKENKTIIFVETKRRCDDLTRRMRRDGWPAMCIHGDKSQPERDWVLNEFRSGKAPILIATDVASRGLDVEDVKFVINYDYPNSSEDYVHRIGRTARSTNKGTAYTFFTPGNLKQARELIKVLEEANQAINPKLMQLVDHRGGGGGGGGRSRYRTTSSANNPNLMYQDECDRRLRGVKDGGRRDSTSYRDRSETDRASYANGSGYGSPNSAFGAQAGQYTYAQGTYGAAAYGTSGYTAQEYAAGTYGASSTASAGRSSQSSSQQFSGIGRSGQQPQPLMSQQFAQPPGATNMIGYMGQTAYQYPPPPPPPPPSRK
# No constants are given. Whether binding was seen depends on the method and setting. In cells and extracts the contact can be indirect. Some entries that bind do so weakly or less than the wild type.
# Molecular target: DEAD-box helicase 17 (DDX17) (mouse (endogenous in NMVMs)) (UniProt Q501J6)
# Experiment: co-IP; Pierce Classic IP Kit; NMVMs (control and Ddx17-cKO), 5 x 10^6 cells per IP; precipitated with DDX17 antibody and, in turn, with BCL6 antibody; SDS-PAGE and blot
substance,measurement,value
B-cell lymphoma 6 (BCL6) (from UniProt P41183 1-707),binding,binds
